These are yes or no findings as the source states them, for the method shown. Binding seen in cells or lysates may run through a third protein. Some entries that bind do so weakly or less than the wild type.
What was measured:
HSF1 = HSF1 (UniProt Q00613); test: co-IP; co-immunoprecipitation of GSK3β and HSF1 with or without VRK2 overexpression (Supplementary Fig. S5a)
[1] = molecular target: Flag-tagged human VRK2 (Vaccinia-related kinase 2), wild type (human) (UniProt Q86Y07); test: co-IP; HEK293T cells transfected with Flag-Mock or Flag-VRK2 and HA-GSK3β; 24 h after transfection whole cell lysates immunoprecipitated with anti-FLAG antibody, immunoblot with anti-HA

Amino acid sequences for entries named in this document (tags omitted).
UniProt Q00613: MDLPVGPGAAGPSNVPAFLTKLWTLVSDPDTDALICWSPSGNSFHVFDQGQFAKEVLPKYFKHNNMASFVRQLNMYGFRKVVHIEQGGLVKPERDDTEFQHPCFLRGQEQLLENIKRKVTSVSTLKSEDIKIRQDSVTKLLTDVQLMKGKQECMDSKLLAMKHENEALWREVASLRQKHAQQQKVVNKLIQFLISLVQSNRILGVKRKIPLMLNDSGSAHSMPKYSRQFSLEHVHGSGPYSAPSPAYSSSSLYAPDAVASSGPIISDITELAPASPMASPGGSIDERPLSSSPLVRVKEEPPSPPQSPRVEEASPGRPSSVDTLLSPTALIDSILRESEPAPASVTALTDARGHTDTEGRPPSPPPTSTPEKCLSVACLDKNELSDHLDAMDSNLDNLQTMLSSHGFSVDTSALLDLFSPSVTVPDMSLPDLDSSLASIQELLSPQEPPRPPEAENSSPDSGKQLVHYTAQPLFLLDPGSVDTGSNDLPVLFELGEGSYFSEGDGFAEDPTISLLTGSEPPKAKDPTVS
UniProt Q86Y07: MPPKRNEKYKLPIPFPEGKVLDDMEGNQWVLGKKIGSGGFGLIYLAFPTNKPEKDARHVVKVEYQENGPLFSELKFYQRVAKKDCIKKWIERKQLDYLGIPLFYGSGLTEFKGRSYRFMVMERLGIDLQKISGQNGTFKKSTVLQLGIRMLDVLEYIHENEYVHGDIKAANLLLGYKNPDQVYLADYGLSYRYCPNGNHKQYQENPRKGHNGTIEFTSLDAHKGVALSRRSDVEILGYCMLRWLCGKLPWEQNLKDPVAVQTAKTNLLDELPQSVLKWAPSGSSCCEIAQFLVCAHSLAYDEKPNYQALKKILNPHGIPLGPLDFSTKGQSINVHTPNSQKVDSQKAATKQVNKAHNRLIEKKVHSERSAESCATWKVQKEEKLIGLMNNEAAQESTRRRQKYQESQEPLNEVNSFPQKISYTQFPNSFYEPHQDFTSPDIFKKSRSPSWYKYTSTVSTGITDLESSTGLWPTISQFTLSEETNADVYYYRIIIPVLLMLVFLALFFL
UniProt P49841: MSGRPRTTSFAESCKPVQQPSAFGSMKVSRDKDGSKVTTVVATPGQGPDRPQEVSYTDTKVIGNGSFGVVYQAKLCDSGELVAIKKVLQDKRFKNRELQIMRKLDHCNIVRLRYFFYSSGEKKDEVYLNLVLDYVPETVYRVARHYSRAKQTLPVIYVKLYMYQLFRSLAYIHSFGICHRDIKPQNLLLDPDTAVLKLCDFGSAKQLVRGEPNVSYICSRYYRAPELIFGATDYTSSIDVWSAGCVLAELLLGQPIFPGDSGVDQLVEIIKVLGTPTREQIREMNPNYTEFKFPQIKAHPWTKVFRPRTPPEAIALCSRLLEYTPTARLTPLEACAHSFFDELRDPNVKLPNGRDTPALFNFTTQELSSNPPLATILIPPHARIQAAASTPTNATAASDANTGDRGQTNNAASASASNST

Substance | binding (HSF1) | binding [1]
GSK3β as used in the co-immunoprecipitation with HSF1 (from UniProt P49841 1-420) (enzyme) | binds | 
HA-tagged GSK3β (glycogen synthase kinase 3β), wild type (from UniProt P49841 1-420) (enzyme) |  | binds
